Among the data in publication PMC10406836 are binding values, retold here.

The chains behind the UniProt entries cited, without tags or fusion partners. Where a name states a change or a piece, a line headed by the entry shows the natural chain unless it says otherwise.
UniProt Q13557: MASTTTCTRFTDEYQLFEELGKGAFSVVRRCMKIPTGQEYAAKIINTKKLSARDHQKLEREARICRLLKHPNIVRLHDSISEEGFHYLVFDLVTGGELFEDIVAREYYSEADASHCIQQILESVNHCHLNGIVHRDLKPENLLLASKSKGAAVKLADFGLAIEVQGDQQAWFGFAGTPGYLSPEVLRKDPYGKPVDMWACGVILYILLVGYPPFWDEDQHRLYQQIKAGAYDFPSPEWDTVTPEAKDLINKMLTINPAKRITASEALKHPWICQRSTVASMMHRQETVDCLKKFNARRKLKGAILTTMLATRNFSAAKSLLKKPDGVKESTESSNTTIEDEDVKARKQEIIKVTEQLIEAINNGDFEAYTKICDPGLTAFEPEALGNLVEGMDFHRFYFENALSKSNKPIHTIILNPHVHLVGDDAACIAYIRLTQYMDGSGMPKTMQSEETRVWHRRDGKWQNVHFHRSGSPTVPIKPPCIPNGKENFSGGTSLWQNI
UniProt Q13257: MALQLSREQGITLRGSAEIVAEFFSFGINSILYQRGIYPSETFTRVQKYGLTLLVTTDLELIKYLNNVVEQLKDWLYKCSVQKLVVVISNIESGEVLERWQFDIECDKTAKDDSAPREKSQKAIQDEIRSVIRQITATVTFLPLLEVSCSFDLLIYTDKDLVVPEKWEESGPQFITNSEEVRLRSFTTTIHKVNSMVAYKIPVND

In assay [1] the target is BirA*-CAMK2D (UniProt Q13557). Briefly: proximity labelling; BioID with Western blot: HEK293T transfected with a BirA* fusion (with or without a co-expressed tagged prey), 50 µM biotin 24 h, lysis in 50 mM Tris, 150 mM NaCl, 1% Triton X-100, streptavidin agarose pull-down overnight at 4 °C; in Fig. 5G with or without 200 ng/ml nocodazole (16 h); in Fig. 5F with or without co-expressed flag-RNF8. (In general: A western blot detects proteins with antibodies after separation by electrophoresis.)

Assay [2] addresses T1, myc-BirA*-RNF8 (human) (UniProt O76064).
T1 sequence: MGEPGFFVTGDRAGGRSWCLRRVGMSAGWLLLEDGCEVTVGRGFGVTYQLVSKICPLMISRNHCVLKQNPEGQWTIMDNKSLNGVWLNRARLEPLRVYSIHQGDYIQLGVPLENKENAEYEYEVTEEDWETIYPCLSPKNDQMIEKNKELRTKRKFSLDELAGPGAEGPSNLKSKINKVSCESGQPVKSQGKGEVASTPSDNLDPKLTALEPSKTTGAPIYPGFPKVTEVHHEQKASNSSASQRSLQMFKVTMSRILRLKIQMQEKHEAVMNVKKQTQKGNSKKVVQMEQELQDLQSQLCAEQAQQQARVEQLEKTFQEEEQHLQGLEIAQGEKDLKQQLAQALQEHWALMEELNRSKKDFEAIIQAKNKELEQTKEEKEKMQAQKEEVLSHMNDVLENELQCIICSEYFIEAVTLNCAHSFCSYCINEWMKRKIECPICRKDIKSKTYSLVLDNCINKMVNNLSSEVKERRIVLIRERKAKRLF
The description is as above.

Assay [3] has as its target T2, BirA*-*RING (RNF8^C403S) (human) (UniProt O76064).
T2 sequence: T1 sequence with C403S
Described as above.

Assay [4] deals with T1, myc-BirA*-RNF8 (human). Briefly: proximity labelling; BioID with mass spectrometry: HEK293T transfected with BirA*-GFP, -RNF8 or -*FHA, biotin, streptavidin agarose pull-down of lysates, on-bead digestion, TMT labelling, LC-MS/MS; RNF8 vs GFP and *FHA vs RNF8 compared.

Numbering of substitutions follows the chain as printed. Results are given in words; binding and its absence hold for the method and conditions named. In cells and extracts the contact can be indirect. A yes stands for co-enrichment or nearness to the bait. Other partners may have been found. For part of these data: Tags and fused reporters may be left off the sequences shown.

Take HA-MAD2 (from UniProt Q13257 1-205): the binding result in assay [1] was “binds”.
“HA-MAD2^L13A (from UniProt Q13257 1-205)”: the binding entry in assay [2] is recorded as “binds”.
For HA-MAD2^ΔC (from UniProt Q13257), the results for the binding entry in assay [3] and in assay [2] were “binds” and “binds weakly”, respectively.
With MAD2 (from UniProt Q13257 1-205), the binding result in assay [4] and in assay [2] was “binds” in each case.
